Measurements reported in PubChem BioAssay AID1487 (National Center for Advancing Translational Sciences (NCATS), 2009).
Some of the results follow. Further columns of the screen follow, without active or inactive calls. Compounds called inactive in the main read-out are mostly missing here. The note in brackets gives the kind of curve behind each potency; many fits are weak.

Assay: qHTS Assay for Modulators of Lamin A Splicing
Conditions: HeLa LMNA splicing GFP/RFP minigene ratio, 48 h
How it was run: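 S3 HeLa cells stably expressing lamin A-EGFP splicing minigene plus DsRed2, 600 cells/well, 48 h compound exposure at 37C. Laser-scanning cytometry; analysed as GFP (500-530 nm)/RFP (575-640 nm) total intensity ratio; 0.5% DMSO vehicle.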

[1] = measured here: RFP viability control channel
[2] = measured here: GFP splicing reporter channel

SMILES	AC50 [1]	AC50 [2]
O=C(Nc1ccc(Cl)c(Cl)c1)Nc1nnc(CC2=CCCCC2)s1	3.16 µM [rising, full curve, poor fit]	–
COc1ccc(/C=C/C(=O)N2c3ccccc3Sc3ccc(C(F)(F)F)cc32)cc1	22.4 µM [rising, partial curve, poor fit]	–
CCOC(=O)c1cccc(NC(=O)CCc2c(C)nn(-c3ccc(N4CCCCC4)nn3)c2C)c1	0.0398 µM [falling, full curve, poor fit]	–
O=C(NCC1OCCc2ccccc21)c1ccc(NC(=O)c2ccccc2Cl)cc1 (configuration not stated)	10 µM [rising, partial curve, poor fit]	–
COc1ccc(Cn2ccc3nc(C)c(C(=O)N4CCN(c5ccc(F)cc5)CC4)cc3c2=O)cc1	0.00891 µM [falling, full curve, poor fit]	2.51 µM [falling, partial curve]
O=C(NCc1ccco1)c1nc(-c2ccccc2)n(-c2ccccc2)n1	5.62 µM [rising, partial curve]	5.62 µM [rising, partial curve, poor fit]
Cc1cc(Cl)ccc1NC(=S)NCc1ccccc1Cl	31.6 µM [rising, single point]	31.6 µM [rising, single point]
CCOC(=O)c1ccc2ncc(C(=O)OCC)c(NCCCN3CCOCC3)c2c1	–	17.8 µM [rising, partial curve]
c1ccc(CSc2ncn[nH]2)nc1	–	35.5 µM [rising, single point]
COC(=O)c1ccc2ccn(CC(=O)NC3CCCCC3)c2c1	22.4 µM [falling, partial curve, poor fit]	–
Cc1cccc(OCC(=O)NCC(=O)N/N=C/c2cc(Br)ccc2OCc2ccccc2)c1	35.5 µM [rising, single point]	35.5 µM [rising, single point]
Oc1ccc(OCc2ccccc2)cc1	10 µM [rising, partial curve]	1.41 µM [falling, full curve]
COc1ccc(S(=O)(=O)N(CC(=O)Nc2ccc(S(=O)(=O)N3CCOCC3)cc2)c2ccccc2)cc1	35.5 µM [rising, single point]	–
Cn1nc(C(C)(C)C)cc1NC(=O)Nc1cc(Cl)cc(Cl)c1	11.2 µM [rising, partial curve]	3.98 µM [rising, partial curve, poor fit]
CCC(=O)Nc1cccc(NC(=O)CSc2nnc(C3CC3)n2C)c1	–	15.8 µM [rising, single point]
CCCOc1ccc2c3c(c(=O)oc2c1OCCC)CCC3	28.2 µM [rising, single point]	15.8 µM [rising, single point]
COc1cccc(C(=O)Nc2ccc3nc(N4CCOCC4)cc(C)c3c2)c1	12.6 µM [rising, partial curve, poor fit]	–
Cc1cc(C)nc(N/N=C/c2ccccc2OCc2ccccc2)n1	8.91 µM [rising, partial curve]	–

SMILES	AC50 [1]	AC50 [2]
O=C(Nc1ccc(S(=O)(=O)Nc2nccs2)cc1)c1ccc(F)c(S(=O)(=O)N2CCOCC2)c1	0.708 µM [rising, full curve, poor fit]	–
COc1ccc(NC(=O)c2oc3ccccc3c2C)c(OC)c1	12.6 µM [falling, single point]	11.2 µM [falling, single point]
CCN(CC)C(=O)CCc1nnc(CCc2c[nH]c3ccccc23)o1	0.0178 µM [falling, full curve, poor fit]	–
CCOC(=O)CN1C(=O)N(c2ccc(C)c(C)c2)S(=O)(=O)c2ccccc21	3.55 µM [falling, partial curve]	–
Cc1ccccc1OCCNC(=O)/C=C/c1ccc([N+](=O)[O-])cc1	–	0.794 µM [falling, single point]
Brc1ccc(-c2nn3c(-c4ccccn4)nnc3s2)o1	15.8 µM [rising, single point]	–
C/C(=N\Nc1ccccc1)c1c(O)cc(C)oc1=O	–	3.98 µM [rising, full curve, poor fit]
Cc1c(Cc2ccccc2)sc(/N=C/c2ccc3ccccc3c2)c1C(N)=O	3.98 µM [rising, full curve]	–
CC1=CC2=NC(=O)/C(=C\c3cccn3CCOc3ccccc3)C(=N)N2O1	12.6 µM [rising, partial curve]	–
COc1cc(/C=C/c2ccc3cccc(OC)c3n2)c(OC(C)=O)c([N+](=O)[O-])c1	3.98 µM [rising, single point]	–
O=[N+]([O-])c1ccc(Nc2ccccc2)nc1	35.5 µM [rising, single point]	–
COc1ccc2[nH]c3c(NCCN4CCCCC4)ncnc3c2c1	10 µM [rising, partial curve]	7.94 µM [rising, partial curve, poor fit]
CCOc1ccccc1NC(=S)NC(=O)CCCOc1ccc(Cl)cc1Cl	14.1 µM [rising, single point]	35.5 µM [rising, single point]
O=C(CSc1nc(O)c(C2CCCCC2)c(=O)[nH]1)Nc1ccc(Cl)cc1	–	17.8 µM [rising, partial curve]
Cc1ccc(NC(=S)N(CCN2CCOCC2)Cc2cc3cc4c(cc3[nH]c2=O)OCO4)cc1	–	0.0224 µM [rising, full curve, poor fit]
CC(C)(C)n1nc2c(c1NC(=O)COc1ccc(Cl)cc1)CSC2	31.6 µM [rising, single point]	25.1 µM [rising, single point]
c1ccc(N2CCOCC2)c(Nc2nc3ccccc3n3cnnc23)c1	–	17.8 µM [rising, single point]
CC1(C)C(C=C(Cl)Cl)C1C(=O)Nc1ccc([N+](=O)[O-])cc1 (configuration not stated)	35.5 µM [rising, single point]	–

3 structures out of the list, sorted by molar mass, largest number first.
SMILES	AC50 [1]	AC50 [2]
Cc1ccc(NC(=S)N(CCN2CCOCC2)Cc2cc3cc4c(cc3[nH]c2=O)OCO4)cc1	–	0.0224 µM [rising, full curve, poor fit]
CCN(CC)C(=O)CCc1nnc(CCc2c[nH]c3ccccc23)o1	0.0178 µM [falling, full curve, poor fit]	–
COc1ccc(NC(=O)c2oc3ccccc3c2C)c(OC)c1	12.6 µM [falling, single point]	11.2 µM [falling, single point]
